Laboratory results: PubChem BioAssay AID504764 (Drosophila RNAi Screening Center, 2011)
In all, the deposit lists about 22,000 reagents; shown is a random part of those with a known target gene and a result. Of all reagents, 403 (1.9%) got an active call. 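Unnormalised raw counts per well; ratio z-scores behind the hit calls and whether each hit raises or lowers signal are not deposited.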 Not stated in the record: the amount of reagent.

Aim: 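Genes whose knock-down alters Notch-dependent transcription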 (primary screen)
System: Drosophila Kc167 cells
Knock-down reagent: long dsRNA against Drosophila genes
Timing: about 5 days (4 days dsRNA, then 24 h after transfection)
Treatment: transfection of constitutively active membrane-tethered Notch lacking the extracellular domain, read 24 h later
Measured: 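Light from a Notch-responsive E(spl)m3 luciferase reporter under active Notch, with control-promoter and no-Notch reporter wells to normalise; raw counts from paired wells a and b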
Scale: induced reporter light, run 1, well a and induced reporter light, run 1, well b: higher = more light from the Notch target reporter with active Notch; control promoter light, run 1, well a and control promoter light, run 1, well b: higher = more light from the viral control promoter (cell number, transfection, viability); uninduced reporter light, run 1, well a: higher = more light from the Notch target reporter without active Notch
Call rule: 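Hit if the duplicate-averaged log2 ratio of induced to control-promoter light gives a plate-wise z beyond ±2, or induced to uninduced beyond ±1.8; weak-control or discordant-duplicate wells dropped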
Calls: active = modifier hit (raised or lowered Notch signal); inactive = not a hit

target | DRSC id | induced reporter light, run 1, well a | induced reporter light, run 1, well b | control promoter light, run 1, well a | control promoter light, run 1, well b | uninduced reporter light, run 1, well a | outcome
insb | DRSC06995 | 91560 | 94460 | 67935 | 85055 | 8780 | inactive
Ilp4 | DRSC10701 | 1.56e5 | 1.51e5 | 1.92e5 | 1.56e5 | 7845 | inactive
CG12730 | DRSC17885 | 1.38e5 | 1.47e5 | 3.28e5 | 1.91e5 | 10305 | inactive
CG8892 | DRSC03121 | 1.63e5 | 1.75e5 | 1.65e5 | 1.60e5 | 16062 | inactive
Cpr67Fb | DRSC10314 | 1.71e5 | 1.43e5 | 2.13e5 | 2.47e5 | 8745 | inactive
Jhbp2 | DRSC12292 | 1.33e5 | 1.06e5 | 1.18e5 | 1.08e5 | 11188 | inactive
Rh5 | DRSC03412 | 2.86e5 | 2.38e5 | 1.71e5 | 2.12e5 | 16810 | inactive
CG45067 | DRSC08414 | 71115 | 59420 | 1.18e5 | 1.08e5 | 3220 | inactive
CG31388 | DRSC15254 | 1.23e5 | 1.55e5 | 84390 | 84760 | 10478 | inactive
ave | DRSC05502 | 2.54e5 | 1.99e5 | 2.04e5 | 2.24e5 | 15310 | inactive
Osi7 | DRSC12176 | 55515 | 90160 | 68910 | 55855 | 5532 | inactive
Amun | DRSC19847 | 1.92e5 | 1.67e5 | 3.00e5 | 2.80e5 | 12945 | inactive
Mal-B1 | DRSC02416 | 1.89e5 | 1.69e5 | 1.29e5 | 1.57e5 | 22605 | inactive
CG13295 | DRSC09969 | 2.26e5 | 2.11e5 | 2.46e5 | 2.78e5 | 7840 | inactive
CG14304 | DRSC14783 | 59575 | 49115 | 40940 | 45485 | 4715 | inactive
parvin | DRSC19468 | 90495 | 99675 | 1.26e5 | 1.46e5 | 12140 | inactive
CG5004 | DRSC19929 | 1.01e5 | 1.08e5 | 1.15e5 | 1.14e5 | 11015 | inactive
CG5004 | DRSC19930 | 78105 | 68695 | 1.10e5 | 73020 | 8938 | inactive
CG5004 | DRSC20123 | 19835 | 15805 | 8225 | 5660 | 7115 | inactive
CG42633 | DRSC16061 | 89610 | 74300 | 72310 | 56585 | 6455 | inactive
nolo | DRSC03705 | 2.05e5 | 1.99e5 | 1.50e5 | 1.63e5 | 15750 | inactive
nolo | DRSC03719 | 45440 | 44605 | 45660 | 32075 | 2570 | inactive
nolo | DRSC03720 | 42075 | 33120 | 53800 | 34960 | 3695 | inactive
Nup44A | DRSC07248 | 1.04e5 | 1.03e5 | 1.06e5 | 90990 | 9065 | inactive
sau | DRSC00694 | 1.64e5 | 1.58e5 | 1.75e5 | 1.80e5 | 21030 | active
CG12990 | DRSC19510 | 42220 | 54920 | 56915 | 36530 | 8665 | inactive
CG8329 | DRSC10978 | 1.16e5 | 1.09e5 | 79080 | 47400 | 11690 | inactive
CG15456 | DRSC20527 | 87295 | 80510 | 67505 | 1.00e5 | 7420 | inactive
rtv | DRSC19541 | 2.10e5 | 1.59e5 | 2.12e5 | 2.08e5 | 12905 | inactive
Damm | DRSC07393 | 97610 | 1.09e5 | 1.42e5 | 1.17e5 | 9715 | inactive
CG13010 | DRSC19529 | 85560 | 65585 | 89390 | 83075 | 7575 | inactive
Cyp317a1 | DRSC07366 | 85585 | 77750 | 1.11e5 | 1.25e5 | 8050 | inactive
CG5039 | DRSC15703 | 1.38e5 | 1.02e5 | 1.92e5 | 1.80e5 | 11160 | inactive
CG30060 | DRSC05419 | 2.33e5 | 2.12e5 | 3.01e5 | 2.81e5 | 18000 | inactive
lncRNA:Hsromega | DRSC22875 | – | – | – | – | – | active
CG34175 | DRSC00424 | 2.57e5 | 2.41e5 | 2.19e5 | 2.36e5 | 15240 | inactive
eIF3j | DRSC06107 | 1.43e5 | 1.41e5 | 1.70e5 | 1.57e5 | 13588 | inactive
CG14645 | DRSC12231 | 1.18e5 | 1.20e5 | 1.14e5 | 96485 | 8075 | inactive
kat80 | DRSC20344 | 34605 | 32950 | 33280 | 27175 | 3580 | inactive
kat80 | DRSC20345 | 59780 | 67725 | 87535 | 51960 | 10520 | inactive
CG3515 | DRSC00609 | 1.23e5 | 1.10e5 | 1.17e5 | 66510 | 8905 | inactive
Alg2 | DRSC08298 | 1.04e5 | 1.26e5 | 1.10e5 | 58595 | 15190 | inactive
UQCR-Q | DRSC10886 | 1.82e5 | 1.59e5 | 2.04e5 | 1.85e5 | 6340 | inactive
Oatp33Eb | DRSC02955 | 1.71e5 | 1.75e5 | 1.63e5 | 1.71e5 | 13770 | inactive
CG5399 | DRSC15791 | 2.47e5 | 2.38e5 | 2.17e5 | 2.48e5 | 20670 | inactive
Vps45 | DRSC16398 | 86550 | 69375 | 73060 | 60185 | 5535 | inactive
CG7453 | DRSC20046 | 1.05e5 | 1.19e5 | 1.32e5 | 1.97e5 | 10870 | inactive
fray | DRSC16950 | 1.60e5 | 1.59e5 | 1.89e5 | 1.76e5 | 13555 | inactive
vn | DRSC11408 | 91885 | 63120 | 54780 | 47735 | 10630 | inactive
Cpr65Ec | DRSC11025 | 2.40e5 | 2.29e5 | 2.42e5 | 2.66e5 | 10715 | inactive
Tbh | DRSC18723 | 1.44e5 | 1.48e5 | 2.45e5 | 2.69e5 | 10180 | inactive
Ocho | DRSC11239 | 1.77e5 | 2.00e5 | 2.41e5 | 2.51e5 | 9815 | inactive
Baldspot | DRSC09671 | 1.32e5 | 1.46e5 | 1.84e5 | 1.86e5 | 8840 | inactive
Clk | DRSC11117 | 1.77e5 | 1.55e5 | 2.38e5 | 1.80e5 | 11560 | inactive
CG11211 | DRSC04851 | 1.65e5 | 1.41e5 | 1.52e5 | 1.51e5 | 9820 | inactive
CG10591 | DRSC09748 | 80830 | 84840 | 97120 | 35970 | 8885 | inactive
Rad17 | DRSC16811 | 2.23e5 | 2.07e5 | 2.92e5 | 2.81e5 | 17595 | active
CG33458 | DRSC22891 | – | – | – | – | – | active
Spn55B | DRSC07694 | 70470 | 76185 | 92210 | 77370 | 5675 | inactive
CG13999 | DRSC02331 | 1.62e5 | 1.40e5 | 1.72e5 | 1.67e5 | 11115 | inactive
CG9044 | DRSC03130 | 1.83e5 | 1.75e5 | 1.63e5 | 1.64e5 | 12875 | inactive
Tengl4 | DRSC15620 | 76765 | 85165 | 70935 | 69305 | 4065 | inactive
Sms | DRSC10408 | 65475 | 61465 | 79715 | 82605 | 3745 | inactive
CG13806 | DRSC08341 | 1.12e5 | 1.08e5 | 1.96e5 | 1.84e5 | 5210 | inactive

In a second layout: results already given
target	DRSC id	induced reporter light, run 1, well a	induced reporter light, run 1, well b	control promoter light, run 1, well a	control promoter light, run 1, well b	uninduced reporter light, run 1, well a	outcome
Mal-B1	DRSC02416	1.89e5	1.69e5	1.29e5	1.57e5	22605	inactive
CG13295	DRSC09969	2.26e5	2.11e5	2.46e5	2.78e5	7840	inactive
CG14304	DRSC14783	59575	49115	40940	45485	4715	inactive
parvin	DRSC19468	90495	99675	1.26e5	1.46e5	12140	inactive
CG5004	DRSC19929	1.01e5	1.08e5	1.15e5	1.14e5	11015	inactive
CG5004	DRSC19930	78105	68695	1.10e5	73020	8938	inactive
CG5004	DRSC20123	19835	15805	8225	5660	7115	inactive
CG42633	DRSC16061	89610	74300	72310	56585	6455	inactive
nolo	DRSC03705	2.05e5	1.99e5	1.50e5	1.63e5	15750	inactive
